This passage reports binding results from paper PMC10883266, “TTLL12 is required for primary ciliary axoneme formation in polarized epithelial cells” (EMBO Reports, 2023).

No constants are given. Whether binding was seen depends on the method and setting. Binding seen in cells or lysates may run through a third protein. A result given as binding can be weak or reduced; the word gives no strength. Where a sequence is shown, tags or fusion partners need not be part of it.

The target in this test is T1, GFP-Rab19 (UniProt A4D1S5).
T1 sequence: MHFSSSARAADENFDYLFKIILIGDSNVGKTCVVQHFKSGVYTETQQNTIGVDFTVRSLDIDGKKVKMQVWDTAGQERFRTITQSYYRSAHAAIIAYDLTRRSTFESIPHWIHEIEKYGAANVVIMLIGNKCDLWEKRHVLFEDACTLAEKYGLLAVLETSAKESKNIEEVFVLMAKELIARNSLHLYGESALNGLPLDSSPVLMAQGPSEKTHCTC
As to the kind of experiment: co-IP; GFP-Rab19 or GFP-only immunoprecipitated from MDCK cells; precipitate blotted for endogenous TTLL12.

As for “endogenous TTLL12 (MDCK cells) (Canis familiaris (endogenous in MDCK II))”, the binding result is reported as “binds”.
